Values joined by “and” are separate entries in the source; they are usually repeats but may differ in a detail not shown here. Identical values can stand only once. Hit rate of the full screen: of about 400,000 compounds, about 5,500 (1.4%) were called active. The inconclusive results got no clear call from the source; some entries with a clear call stand among them for comparison. Calls come from the whole dose curve; as a rule, active = well fitted cell-killing curve with a large enough effect; inconclusive = small, poorly fitted or top-dose-only effect, or effect the other way; inactive = flat fitted curve, though single readings scatter. Potencies beside an inconclusive call are fits to weak or partial responses and may not hold up.
Test: qHTS assay for MDR1-selective chemotherapeutics: Primary screen using the parental adenocarcinoma cell KB-3-1; note: nearly all actives have a fitted effect of over 60% in size
Conditions: KB-3-1 viability, CellTiter-Glo ATP luminescence, 72 h; activity change, negative = cytotoxic: at 46.1 µM (top of the series)
Summary of the method: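 KB-3-1 cells, DMEM (no phenol red) + 10% FBS; compound by pin transfer, 72 h, 37 °C. Readout: CellTiter-Glo luminescence after 10 min. Data normalized, curve-fitted.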
% is set by controls: 0 for no effect and ±100 for the full control effect; potency is the fitted concentration of half-maximal effect.

| SMILES | Potency | activity change, negative = cytotoxic |
| --- | --- | --- |
| COc1ccc(-c2nc(CN3CCCCC3CCc3ccccn3)c(C)o2)cc1 (centres undefined) | inconclusive: 1.3 µM [rising, full curve] |  |
| CCCc1cc(C(=O)Cc2ccc(C(=O)OCC)o2)c(O)cc1O | inactive |  |
| Cc1ccc(-c2csc3ncnc(N4CCN(S(=O)(=O)c5cccs5)CC4)c23)cc1 | inconclusive: 20.6 µM [cytotoxic, single point] |  |
| CCOc1ccc(N2C(=O)C3C(c4ccc(OC)cc4OC)NC(CCSC)(C(=O)OC)C3C2=O)cc1 (centres undefined) | inactive |  |
| O=C(N/N=C/c1cc([N+](=O)[O-])ccc1O)c1cccc2cc[nH]c12 | inconclusive: 13 µM [cytotoxic, partial curve] |  |
| O=C(c1ccccc1)c1ccc(Sc2ccc([N+](=O)[O-])cc2)cc1 | inconclusive: 0.0092 µM [cytotoxic, full curve, poor fit] |  |
| O=C(COc1ccccc1)Nc1nnc(S(=O)(=O)N2CCCCC2)s1 | inconclusive: 29.1 µM [cytotoxic, partial curve, poor fit] |  |
| CO/N=C(\c1nonc1N)N1CCN(c2ccc([N+](=O)[O-])cc2Cl)CC1 | inconclusive: 18.4 µM [cytotoxic, partial curve, poor fit] |  |
| Cc1[nH]c2ccc(C(=O)N3CCN(c4cccc(Cl)c4)CC3)cc2c1C | inconclusive: 29.1 µM [cytotoxic, single point] |  |
| CN(C)S(=O)(=O)c1cccc(-c2nn(-c3ccccc3)cc2/C=C2\SC(=S)NC2=O)c1 | inconclusive: 20.6 µM [cytotoxic, single point] |  |
| CC(=O)c1ccc(NC(=O)Nc2ncn(Cc3cccc(C)c3)n2)cc1 | inactive |  |
| Clc1ccc(-c2cn(-c3ccccc3)c3[n+]2CCS3)cc1 | active: 13 µM |  |
| CCc1c(-c2ccccc2F)ncn1Cc1cccc(-c2ccccc2)c1 | inconclusive: 13 µM [cytotoxic, partial curve, poor fit] |  |
| CCn1c(CCCOc2ccc(Cl)cc2Cl)nnc1SCC(=O)Nc1cc(F)ccc1C | inconclusive: 23.1 µM [cytotoxic, single point] |  |
| CC1Cc2cc(/C(O)=C3/C(=O)C(=O)N(CCCN4CCOCC4)C3c3ccc(C(C)C)cc3)ccc2O1 (centres undefined) | inactive |  |
| CCOc1ccc(CNC(=O)C2Cc3cc(S(=O)(=O)N4CCCCCC4)ccc3N2C(C)=O)cc1 (centres undefined) | inactive |  |
| COc1cc(C2C(C#N)=C(N)Oc3cc(O)ccc32)cc(OC)c1OC (centres undefined) | active: 2.91 µM |  |
| COc1cc2c(cc1NC(=O)c1cccc([N+](=O)[O-])c1)oc1ccccc12 | inconclusive: 14.6 µM [cytotoxic, partial curve] |  |
| COCCCn1c(=O)/c(=C\c2ccccc2OC(F)F)s/c1=C(/C#N)C(=O)NC(C)C | inactive |  |
| CC1CCCC(NC(=S)Nc2ccc(SC(F)F)cc2)C1C (centres undefined) | active: 18.4 µM |  |
| O=C(CSc1nc(N2CCCCC2)nc(N2CCCCC2)n1)Nc1nccs1 | inconclusive: 20.6 µM [cytotoxic, single point] |  |
| Cn1c(=O)[nH]c(=O)c2c1nc(Br)n2CCOc1ccccc1 | inconclusive: 29.1 µM [cytotoxic, single point] |  |
| Clc1ccc(CN2CCC(c3nc4ccc(Cl)cc4[nH]3)CC2)cc1 | inconclusive: 20.6 µM [cytotoxic, single point] |  |

| SMILES | Potency | activity change, negative = cytotoxic |
| --- | --- | --- |
| CC(C)(C)c1ccc(-c2nnc(SCCC#N)n2C2CCCC2)cc1 | inconclusive: 29.1 µM [cytotoxic, single point] |  |
| Cc1cccc(Nc2nc(N)c([N+](=O)[O-])c(N3CC(C)OC(C)C3)n2)c1 (centres undefined) | inconclusive: 20.6 µM [cytotoxic, single point] |  |
| Cc1cc(-c2ccc(C)c(S(=O)(=O)NCc3ccc(Br)cc3)c2)on1 | inconclusive: 18.4 µM [cytotoxic, single point] |  |
| COc1ccccc1-c1ncn(Cc2cccc(-c3ccccc3)c2)c1-c1cc(C)cc(C)c1 | inconclusive: 29.1 µM [cytotoxic, partial curve, poor fit] |  |
| CCn1c2ccccc2c2cc(NC(=O)COC(=O)c3ccc(O)cc3)ccc21 | inconclusive: 29.1 µM [rising, single point] |  |
| COc1cc(C2CC(c3cccs3)=NN2C(=O)CCl)ccc1OC(F)F (centres undefined) | inconclusive: 18.4 µM [cytotoxic, single point] |  |
| COc1cc(CNc2ncnc3c2ncn3[C@H]2CN(Cc3ccc4c(c3)OCO4)C[C@@H](CO)O2)cc(OC)c1OC | inactive |  |
| CCCOc1ccc(CCc2n[nH]c(=S)n2-c2ccccc2)cc1 | inactive |  |
| Cc1ccccc1-c1noc(-c2ccccc2OCC(=O)Nc2ccccc2[N+](=O)[O-])n1 | inactive |  |
| Clc1ccc2c(NNc3ccccc3Cl)ccnc2c1 | inactive |  |
| O=C(Nc1ccc2[nH]c(=S)sc2c1)Nc1ccccc1F | inconclusive: 2.91 µM [cytotoxic, full curve, poor fit] |  |
| CCOc1ccccc1N1CCN(C(=O)c2cc3c(C)cc(C)cc3[nH]2)CC1 | active: 18.4 µM |  |
| Cc1cccc(-c2nnc(SC(C)C(=O)Nc3ccccc3)n2C)c1 (centres undefined) | inconclusive: 6.51 µM [rising, full curve, poor fit] |  |
| CCOC(=O)c1ccc(NC(=O)CSc2nc3ncccc3[nH]2)cc1 | inactive |  |
| CCOc1cc(CN2CCN(CCOCCO)CC2)ccc1OC | inactive |  |
| CCOc1cc(C(=O)Nc2ccc(S(=O)(=O)NC3=NCCCCC3)cc2)cc(OCC)c1OCC | inactive |  |
| NC(=O)C1CCN(c2nc(-c3ccccc3C(F)(F)F)cs2)CC1 | inactive |  |
| Cc1ccc(S(=O)(=O)N2CCC(C(=O)NC3CC3)CC2)cc1 | inconclusive: 3.66 µM [rising, single point] |  |
| CCOc1ccc(-c2cc(C(=O)N3CCC(C)CC3)c3ccccc3n2)cc1 | inactive |  |
| O=C(O)[C@H](Cc1ccccc1)NC(=O)N1CCN(c2ccccc2)CC1 | inconclusive: 29.1 µM [cytotoxic, single point] |  |
| O=C(CN(CC1CCCO1)C(=O)CNS(=O)(=O)c1ccc(Cl)cc1)NCc1ccc(F)cc1 (centres undefined) | inactive |  |
| Cc1cnc(NC(=O)CCc2ccccc2)s1 | inconclusive: 16.4 µM [cytotoxic, single point] |  |
| Cc1cc(-n2c(SCC(=O)Nc3ccc(Br)cc3)nc3n[nH]c(C)c3c2=N)ccc1Cl | inconclusive: 16.4 µM [cytotoxic, partial curve, poor fit] |  |

| SMILES | Potency | activity change, negative = cytotoxic |
| --- | --- | --- |
| O[C@H]1C[C@H](c2ccccc2)N(CC2CCCCC2)C[C@@H]1n1cc(-c2ccc(F)cc2)nn1 | inconclusive: 18.4 µM [cytotoxic, single point] |  |
| CCn1nnc(NC(=O)c2ccc([N+](=O)[O-])o2)n1 | inconclusive: 29.1 µM [cytotoxic, single point] |  |
| c1ccc2sc(-n3cc(C4CCCCC4)nn3)nc2c1 | inconclusive: 20.6 µM [cytotoxic, single point] |  |
| COc1ccc(CC2(CO)CCN(Cc3cc4ccccc4o3)CC2)cc1 | inactive |  |
| CCCc1ccc(-c2cc(C(=O)N3CCN(c4ccccn4)CC3)c3ccccc3n2)cc1 | inconclusive: 29.1 µM [cytotoxic, single point] |  |
| CCCCCn1c(=N)n(CC(O)COc2ccccc2OC)c2ccccc21 (centres undefined) | inconclusive: 29.1 µM [cytotoxic, single point] and inconclusive: 20.6 µM [cytotoxic, partial curve] |  |
| CSc1ccccc1C(=O)C1CCCN(C(=O)CCc2cccnc2)C1 (centres undefined) | inactive |  |
| CCc1nnc(NC(=O)CSc2nnc(C3CCCCC3)n2-c2cccc(Cl)c2)s1 | inactive |  |
| Cc1ccc(Cn2nc(C)c(NC(=O)c3cc(-c4ccco4)on3)c2C)cc1 | inconclusive: 23.1 µM [cytotoxic, single point] |  |
| O=C(OCCCc1cc2ccccc2c(=O)o1)c1ccc(C(F)(F)F)cc1 | inconclusive: 29.1 µM [rising, single point] |  |
| CCCCNC(=O)c1nc(C2CCN(S(=O)(=O)c3ccccc3C(F)(F)F)CC2)oc1-c1ccccc1 | inactive |  |
| CN(C)c1ccc(/C=C/c2cc[n+](C)c3ccc4ccccc4c23)cc1 | active: 0.92 µM |  |
| CC(=O)N1CCc2c(sc3c2c(=O)n(Cc2ccccc2)c(=O)n3CC(=O)Nc2ccc(C)c(F)c2)C1 | inactive |  |
| Cc1cc(C)n(CCOc2nonc2N)n1 |  | inconclusive: 31.3% |
| CC#CCN1C=C(C(=O)OCC)C(C)N(Cc2ccc(Br)cc2)S1(=O)=O (centres undefined) | inactive |  |
| CCc1nc(Nc2ccc3c(c2)OCO3)c2oc3ccccc3c2n1 | inactive |  |
| CCC(CC)C(=O)Nc1ccc2nc(SCC(=O)N3c4ccccc4CC3C)sc2c1 (centres undefined) | inconclusive: 29.1 µM [cytotoxic, single point] |  |
| COc1cc(/C=C/c2ccc3cccc(O)c3n2)ccc1O | inconclusive: 23.1 µM [cytotoxic, single point] |  |
| CS(=O)(=O)N(CC(=O)N1CCN(c2ccc(F)cc2)CC1)c1ccc(F)c(Cl)c1 | inconclusive: 14.6 µM [cytotoxic, partial curve] |  |
| CC(C)(C)C(=O)Nc1nc2c(s1)COc1ccccc1-2 | inconclusive: 29.1 µM [cytotoxic, single point] |  |
| COc1cccc(C(=O)NCC(=O)N/N=C/c2ccc(OC(=O)c3cccs3)c(OC)c2)c1 | inconclusive: 29.1 µM [rising, single point] |  |
| CCN(CC)S(=O)(=O)c1cccc(NC(=O)CCSc2ccc(Cl)cc2)c1 | inconclusive: 25.9 µM [cytotoxic, single point] |  |
| COc1ccc(F)c(CN2CCCC(CNS(=O)(=O)c3cccc4cccnc34)C2)c1 (centres undefined) | inactive |  |

— PubChem BioAssay AID1347075 (National Center for Advancing Translational Sciences (NCATS), 2019)
